## Library screening results

Measurements from “University of Dundee, Small-Polar-MMV Screening Library” (2021), ChEMBL document CHEMBL3988442.

Each number is a percent effect as filed.
The controls that fix the scale are not given in the record; negative values are as filed.
This is an unselected part of the compounds tested.
Two or more numbers in one place are separate tests of the same structure; such repeats can differ widely.

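Viability assay of Plasmodium falciparum sporozoites; the read-out is not stated. The concentration is filed as 10 mM, unlikely as a test dose, so the dose is not known. The record gives no direction; compounds that gave an IC50 in retests scored well above the rest, so higher reads as lower viability. Strong results were mostly tested again. Size under these conditions: about 34,000 compounds, about 280 of them at 50% or above in at least one test.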

For NS(=O)(=O)c1cc(C(=O)N2CCCC(n3ccnc3)C2)cs1 (stereo not given) the result was -4.254%.
For COc1ncccc1C(=O)N1CCC(c2nc3c(C)cccc3[nH]2)CC1 the result was 3.421%.
For Cc1c2nnn(CC(=O)N(C)C)c(=O)c2nn1C the result was 17.85%.
For COc1cc(N2CCC3(CC2)CN(C)C(=O)CO3)ncn1 the result was 3.51%.
For O=C(CN1CCN(C(=O)Cc2ccc3c(c2)OCCO3)CC1)NC1CC1 the result was -31.08% and -15.77% and -0.9812%.
For Fc1cccc(Cc2cncc(C3CCCN3C3CCOCC3)n2)c1 (stereo not given) the result was -10.3%.
For Cc1noc(C)c1-c1ccc(C2CCCN2CCC(N)=O)nc1 (stereo not given) the result was 8.146%.
For CNC(=O)c1ncn2c1CN(CCC(C)C)S(=O)(=O)c1ccccc1-2 the result was 14.98%.
For COc1cccc(CN2CCc3nc4ccsc4c(=O)n3CC2)c1.Cl the result was -2.252%.
For CN(C)C(=O)CCCS(=O)(=O)Cc1cc(Cl)c2c(c1)OCCO2 the result was -13.81% and -8.909%.
For CC(Cc1ccco1)NC(=O)Nc1ccc(S(C)(=O)=O)nc1 (stereo not given) the result was -13.03%.
For O=C(NCc1ccc(Cl)s1)NCc1nnc2n1CCCCC2 the result was 3.501%.
For O=C(CCn1cc(Cl)cn1)N1CCN(CCOc2ccccc2)CC1 the result was -0.355%.
For CSCCC(O)C(=O)N1CCC(OCc2cccnc2)CC1 (stereo not given) the result was -17.39%.
For CN(C)c1cc(CNC(=O)Nc2ccc(S(C)(=O)=O)nc2)ccn1 the result was 19.16%.
For Cc1nsc(NC(=O)N2CCN(Cc3ccccc3F)C(=O)C2)n1 the result was 4.741%.
For CCc1csc(C2CCCN(C(=O)c3ccc(=O)n(CC)n3)C2)n1 (stereo not given) the result was 3.839%.
For Cc1nc(-c2ccccc2C(=O)O)cc(C2CCN(C(C)C)C2)n1 (stereo not given) the result was 14.14%.
For COCCN(CCC#N)S(=O)(=O)c1ccc(F)cc1Cl the result was -5.562%.
For COCCc1noc(CN(C)C(=O)C2COc3ccccc3C2)n1 (stereo not given) the result was -19.74%.
For Cc1cnn(CC(C)NCc2cc(C#N)ccc2F)c1 (stereo not given) the result was -1.754%.
For O=C(NCCNc1ncccn1)NCCc1c(F)cccc1F the result was -7.355%.
For O=C(O)C(F)(F)F.[H][C@@]12CCN(c3ccc(C)nn3)[C@]1([H])CC[C@H](C(=O)N1CCCCO1)O2 the result was 0.6932%.
For COc1ccc(Cl)cc1NC(=O)CNc1ccn(CC(N)=O)n1 the result was 5.943%.
For Cc1oc(-c2ccsc2)nc1CNC(C)Cn1cccn1 (stereo not given) the result was -13.6% and -6.255%.
For O=C(c1cnn2c1OCCC2)N1CCC2(CC1)OCCO2 the result was 2.346%.
For CCc1cc(N2CC(N3CCCCC3C)C2)n2nccc2n1 (stereo not given) the result was -4.154%.
For CN(CCn1cccn1)S(=O)(=O)c1cccc(Cl)c1C#N the result was -8.914%.
For COCCN(Cc1cnn(C)c1)c1nc(C)nc2sccc12 the result was 10.73% and 4.495%.
For CC(C)n1nc(CN2CCCCC2)c2c1CN(C(=O)c1ccno1)C2.O=C(O)C(F)(F)F the result was 6.655%.
For Cc1n[nH]c(C)c1C1CCCN1C(=O)CNC(=O)C(C)(C)C (stereo not given) the result was 1.771%.
For O=C(O)C(F)(F)F.O=C(O)C(F)(F)F.[H][C@@]12CCN(Cc3cccnc3)C(=O)[C@@]1([H])CN(Cc1ccc(C)s1)C2 the result was 12.52%.
For O=C(O)C(F)(F)F.[H][C@]12C[C@@H](C(=O)Nc3cnccn3)CO[C@@]1([H])CCN(c1ncc(F)cn1)C2 the result was -1.855%.
For c1cncc(-c2noc(CNCC3CCCN3c3cccnn3)n2)c1 (stereo not given) the result was 7.327%.
For CN(C)C(=O)CN1CCc2ncnc(C3CC3)c2CC1 the result was 9.457%.
For Cc1cnn(CC2CCCN2C(=O)CCc2ccncc2)c1 (stereo not given) the result was 6.633%.
For O=C1CCCN1Cc1ncn2c1CN(C(=O)C1CC=CC1)CCC2 the result was 7.632%.
For CC(C)S(=O)(=O)NCC1CCCN(C(=O)c2ccc3c(c2)OCCO3)C1 (stereo not given) the result was 4.871% and 3.771% and 0.8264%.
For CCCN1CCCn2c(nc(CNC(=O)c3cnoc3C)cc2=O)C1.O=C(O)C(F)(F)F the result was -19.43%.
For O=C1CCNc2ncc(-c3ccccc3Cl)cc2CN1C1CC1 the result was -48.77%.
For CC(C)=CCN1CCC(c2nccn2Cc2cscn2)CC1 the result was -11.33%.
For c1cnc(-c2cnc(N3CCSCC3)nc2C2CCCO2)cn1 (stereo not given) the result was -9.597%.
For COC1CN(C(=O)COC(C)=O)CCC(=O)N(C)c2ccccc21 (stereo not given) the result was -38.42%.
For CNc1snc(C)c1C(=O)N1CCCC(n2nc(C)cc2C)C1 (stereo not given) the result was -7.108%.
For CCOc1ncccc1NC(=O)c1cc(C)c(C)s1 the result was -5.599%.
For CNc1cc(C2CN(CC(=O)N(C)C)CCO2)nc(C)n1 (stereo not given) the result was 4.643%.
For O=C(O)C(F)(F)F.O=C(O)C(F)(F)F.O=C(O)C(F)(F)F.c1cc(CNCC2OCCc3cn(CC4CCOCC4)nc32)ccn1 (stereo not given) the result was -5.257%.
For CCc1nc(CN2CCCN(Cc3nnc(C4CC4)o3)CC2)no1 the result was 5.258%.
For Cc1ccc(C2COCCN2C(=O)c2ccc(F)c(F)c2)o1 (stereo not given) the result was -12.75%.
For COc1c(CNCc2ccccc2Cn2cccn2)c(C)nn1C the result was -0.5513%.
For CCCN(Cc1ccccc1O)S(=O)(=O)C(C)CC (stereo not given) the result was 2.807%.
For CN(Cc1ccccc1)CC(O)Cn1cnc2ccccc2c1=O (stereo not given) the result was 5.314%.
For Cc1ccccc1CN1CCC2(CCCN2C(=O)C(C)C)CC1 the result was 16.55%.
For CC(C(=O)NCC1CCCCC1)S(=O)(=O)Cc1csc(-c2cccs2)n1 (stereo not given) the result was -24.98% and -17.62%.
For [H][C@@]12CCN(Cc3ccco3)C[C@@]1([H])O[C@@H](c1ccnc(C(C)C)n1)C2 the result was -4.139%.

5 of the entries, repeated:

For CC(C)=CCN1CCC(c2nccn2Cc2cscn2)CC1 the result was -11.33%.
For Cc1oc(-c2ccsc2)nc1CNC(C)Cn1cccn1 (stereo not given) the result was -13.6% and -6.255%.
For COc1ncccc1C(=O)N1CCC(c2nc3c(C)cccc3[nH]2)CC1 the result was 3.421%.
For CN(C)c1cc(CNC(=O)Nc2ccc(S(C)(=O)=O)nc2)ccn1 the result was 19.16%.
For Cc1nc(-c2ccccc2C(=O)O)cc(C2CCN(C(C)C)C2)n1 (stereo not given) the result was 14.14%.